The entries are a selection whose mix differs from that of the whole data set. Single values of this set are uncertain.
Compound: COC(=O)/C=C/c1ccccc1 [methyl cinnamate]
Assay: log2 ratio of iodoacetamide-alkyne labeling of the cysteine site, DMSO over compound (competition); higher = stronger covalent engagement of the cysteine by the compound, active = 1 or more
Conditions: 500 µM; treatment time 1 h; system: HEK293T cell lysate
Method in brief: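 The log2 competition ratio per cysteine is defined as mean reporter intensity in control channels over mean reporter intensity in compound channels. Lysate from HEK293T cells (2 mg/mL) received electrophile (500 µM) or vehicle for 1 h at ambient temperature, followed by iodoacetamide alkyne for 1 h. Samples were clicked to sCIP-TMT reagents, pooled, trypsin-digested overnight at 37 °C, streptavidin-enriched, acid-eluted and run on Orbitrap Eclipse LC-MS/MS with FAIMS, with quantification in FragPipe. Three replicates with duplicate channels were used, and any cysteine quantified in only one replicate was excluded.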

Chains of the proteins cited; added tags and fusions are not shown. Lines headed by an entry give the natural chain unless they say otherwise; changes in a name come on top.
UniProt Q8NI36: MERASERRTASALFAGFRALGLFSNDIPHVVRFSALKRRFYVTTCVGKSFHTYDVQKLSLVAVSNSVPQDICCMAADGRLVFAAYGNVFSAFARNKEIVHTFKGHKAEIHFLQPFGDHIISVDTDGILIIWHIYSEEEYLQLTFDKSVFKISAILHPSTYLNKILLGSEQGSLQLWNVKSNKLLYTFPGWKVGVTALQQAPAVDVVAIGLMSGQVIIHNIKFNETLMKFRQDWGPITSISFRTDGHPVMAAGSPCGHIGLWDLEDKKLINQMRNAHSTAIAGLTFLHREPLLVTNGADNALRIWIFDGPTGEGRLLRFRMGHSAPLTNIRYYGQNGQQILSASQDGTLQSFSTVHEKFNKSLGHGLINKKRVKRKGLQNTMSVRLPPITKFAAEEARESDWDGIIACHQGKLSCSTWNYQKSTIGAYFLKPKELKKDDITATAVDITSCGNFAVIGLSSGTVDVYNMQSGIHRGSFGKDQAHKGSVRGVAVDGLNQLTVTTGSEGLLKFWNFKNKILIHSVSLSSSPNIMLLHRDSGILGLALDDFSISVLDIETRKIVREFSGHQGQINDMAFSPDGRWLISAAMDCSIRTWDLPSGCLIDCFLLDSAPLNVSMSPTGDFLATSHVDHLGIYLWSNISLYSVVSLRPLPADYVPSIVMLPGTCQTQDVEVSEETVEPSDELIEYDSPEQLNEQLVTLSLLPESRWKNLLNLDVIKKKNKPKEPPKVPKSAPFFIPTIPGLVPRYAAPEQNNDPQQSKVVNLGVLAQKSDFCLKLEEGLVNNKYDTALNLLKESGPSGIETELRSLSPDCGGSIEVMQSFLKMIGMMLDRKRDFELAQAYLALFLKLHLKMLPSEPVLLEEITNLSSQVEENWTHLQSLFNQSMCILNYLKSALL
UniProt Q8NB37: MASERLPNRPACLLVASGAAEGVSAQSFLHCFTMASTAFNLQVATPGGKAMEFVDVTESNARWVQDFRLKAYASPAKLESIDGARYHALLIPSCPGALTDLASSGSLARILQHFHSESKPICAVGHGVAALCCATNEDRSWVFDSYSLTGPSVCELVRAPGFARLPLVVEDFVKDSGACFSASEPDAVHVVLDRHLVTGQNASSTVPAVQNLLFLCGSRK
UniProt Q8TBP6: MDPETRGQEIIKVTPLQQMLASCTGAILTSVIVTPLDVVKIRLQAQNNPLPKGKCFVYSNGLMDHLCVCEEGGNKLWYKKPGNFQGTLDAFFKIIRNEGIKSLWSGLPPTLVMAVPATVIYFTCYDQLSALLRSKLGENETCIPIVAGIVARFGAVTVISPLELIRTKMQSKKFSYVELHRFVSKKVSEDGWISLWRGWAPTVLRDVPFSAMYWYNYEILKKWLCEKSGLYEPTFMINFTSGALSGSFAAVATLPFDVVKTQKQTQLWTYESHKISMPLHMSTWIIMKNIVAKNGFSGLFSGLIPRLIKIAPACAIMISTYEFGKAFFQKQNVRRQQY
UniProt Q8TAT6: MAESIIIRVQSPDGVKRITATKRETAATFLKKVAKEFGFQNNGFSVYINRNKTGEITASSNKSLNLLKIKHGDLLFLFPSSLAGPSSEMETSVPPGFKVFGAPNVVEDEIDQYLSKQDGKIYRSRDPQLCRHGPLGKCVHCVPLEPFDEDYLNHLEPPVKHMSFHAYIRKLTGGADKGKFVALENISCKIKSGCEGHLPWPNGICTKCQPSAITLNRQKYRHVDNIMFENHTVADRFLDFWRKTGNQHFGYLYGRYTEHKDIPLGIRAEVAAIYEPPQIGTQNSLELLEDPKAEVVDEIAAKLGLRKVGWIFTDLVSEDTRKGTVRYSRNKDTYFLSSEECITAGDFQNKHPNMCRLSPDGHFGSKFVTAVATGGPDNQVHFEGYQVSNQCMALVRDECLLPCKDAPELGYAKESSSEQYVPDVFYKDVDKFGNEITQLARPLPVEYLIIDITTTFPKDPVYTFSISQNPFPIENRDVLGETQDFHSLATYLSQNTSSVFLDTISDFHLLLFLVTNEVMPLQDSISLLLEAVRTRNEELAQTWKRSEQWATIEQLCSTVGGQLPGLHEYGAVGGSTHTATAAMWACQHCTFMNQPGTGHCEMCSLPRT
UniProt Q8N4Q0: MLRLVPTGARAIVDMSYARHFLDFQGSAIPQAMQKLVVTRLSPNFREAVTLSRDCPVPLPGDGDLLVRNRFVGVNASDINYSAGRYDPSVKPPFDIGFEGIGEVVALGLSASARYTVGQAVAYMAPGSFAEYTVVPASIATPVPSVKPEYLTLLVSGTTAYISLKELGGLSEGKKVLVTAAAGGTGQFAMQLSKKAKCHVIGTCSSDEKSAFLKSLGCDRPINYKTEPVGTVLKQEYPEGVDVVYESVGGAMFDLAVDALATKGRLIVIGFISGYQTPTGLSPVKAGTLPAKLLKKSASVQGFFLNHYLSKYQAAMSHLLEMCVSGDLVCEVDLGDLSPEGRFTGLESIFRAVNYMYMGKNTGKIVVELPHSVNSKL
UniProt Q8ND82: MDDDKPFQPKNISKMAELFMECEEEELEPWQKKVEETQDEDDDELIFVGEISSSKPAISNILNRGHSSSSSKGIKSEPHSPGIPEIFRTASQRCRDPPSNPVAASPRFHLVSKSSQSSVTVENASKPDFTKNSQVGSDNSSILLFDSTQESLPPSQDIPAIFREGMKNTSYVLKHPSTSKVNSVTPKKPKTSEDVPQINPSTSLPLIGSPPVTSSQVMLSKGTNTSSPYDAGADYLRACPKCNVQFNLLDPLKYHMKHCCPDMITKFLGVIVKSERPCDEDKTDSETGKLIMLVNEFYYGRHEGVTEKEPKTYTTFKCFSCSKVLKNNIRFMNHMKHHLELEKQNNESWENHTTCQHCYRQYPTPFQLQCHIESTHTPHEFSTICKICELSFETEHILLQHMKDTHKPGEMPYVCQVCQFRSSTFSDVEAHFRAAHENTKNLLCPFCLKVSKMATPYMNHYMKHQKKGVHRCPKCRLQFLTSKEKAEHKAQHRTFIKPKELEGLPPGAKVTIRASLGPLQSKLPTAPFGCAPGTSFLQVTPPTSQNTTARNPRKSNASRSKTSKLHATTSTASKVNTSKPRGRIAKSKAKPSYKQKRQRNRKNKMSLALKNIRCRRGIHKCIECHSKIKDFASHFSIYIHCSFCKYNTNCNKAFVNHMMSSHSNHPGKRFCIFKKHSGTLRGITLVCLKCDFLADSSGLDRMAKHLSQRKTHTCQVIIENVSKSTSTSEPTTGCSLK
UniProt Q8N201, whole entry, looked up: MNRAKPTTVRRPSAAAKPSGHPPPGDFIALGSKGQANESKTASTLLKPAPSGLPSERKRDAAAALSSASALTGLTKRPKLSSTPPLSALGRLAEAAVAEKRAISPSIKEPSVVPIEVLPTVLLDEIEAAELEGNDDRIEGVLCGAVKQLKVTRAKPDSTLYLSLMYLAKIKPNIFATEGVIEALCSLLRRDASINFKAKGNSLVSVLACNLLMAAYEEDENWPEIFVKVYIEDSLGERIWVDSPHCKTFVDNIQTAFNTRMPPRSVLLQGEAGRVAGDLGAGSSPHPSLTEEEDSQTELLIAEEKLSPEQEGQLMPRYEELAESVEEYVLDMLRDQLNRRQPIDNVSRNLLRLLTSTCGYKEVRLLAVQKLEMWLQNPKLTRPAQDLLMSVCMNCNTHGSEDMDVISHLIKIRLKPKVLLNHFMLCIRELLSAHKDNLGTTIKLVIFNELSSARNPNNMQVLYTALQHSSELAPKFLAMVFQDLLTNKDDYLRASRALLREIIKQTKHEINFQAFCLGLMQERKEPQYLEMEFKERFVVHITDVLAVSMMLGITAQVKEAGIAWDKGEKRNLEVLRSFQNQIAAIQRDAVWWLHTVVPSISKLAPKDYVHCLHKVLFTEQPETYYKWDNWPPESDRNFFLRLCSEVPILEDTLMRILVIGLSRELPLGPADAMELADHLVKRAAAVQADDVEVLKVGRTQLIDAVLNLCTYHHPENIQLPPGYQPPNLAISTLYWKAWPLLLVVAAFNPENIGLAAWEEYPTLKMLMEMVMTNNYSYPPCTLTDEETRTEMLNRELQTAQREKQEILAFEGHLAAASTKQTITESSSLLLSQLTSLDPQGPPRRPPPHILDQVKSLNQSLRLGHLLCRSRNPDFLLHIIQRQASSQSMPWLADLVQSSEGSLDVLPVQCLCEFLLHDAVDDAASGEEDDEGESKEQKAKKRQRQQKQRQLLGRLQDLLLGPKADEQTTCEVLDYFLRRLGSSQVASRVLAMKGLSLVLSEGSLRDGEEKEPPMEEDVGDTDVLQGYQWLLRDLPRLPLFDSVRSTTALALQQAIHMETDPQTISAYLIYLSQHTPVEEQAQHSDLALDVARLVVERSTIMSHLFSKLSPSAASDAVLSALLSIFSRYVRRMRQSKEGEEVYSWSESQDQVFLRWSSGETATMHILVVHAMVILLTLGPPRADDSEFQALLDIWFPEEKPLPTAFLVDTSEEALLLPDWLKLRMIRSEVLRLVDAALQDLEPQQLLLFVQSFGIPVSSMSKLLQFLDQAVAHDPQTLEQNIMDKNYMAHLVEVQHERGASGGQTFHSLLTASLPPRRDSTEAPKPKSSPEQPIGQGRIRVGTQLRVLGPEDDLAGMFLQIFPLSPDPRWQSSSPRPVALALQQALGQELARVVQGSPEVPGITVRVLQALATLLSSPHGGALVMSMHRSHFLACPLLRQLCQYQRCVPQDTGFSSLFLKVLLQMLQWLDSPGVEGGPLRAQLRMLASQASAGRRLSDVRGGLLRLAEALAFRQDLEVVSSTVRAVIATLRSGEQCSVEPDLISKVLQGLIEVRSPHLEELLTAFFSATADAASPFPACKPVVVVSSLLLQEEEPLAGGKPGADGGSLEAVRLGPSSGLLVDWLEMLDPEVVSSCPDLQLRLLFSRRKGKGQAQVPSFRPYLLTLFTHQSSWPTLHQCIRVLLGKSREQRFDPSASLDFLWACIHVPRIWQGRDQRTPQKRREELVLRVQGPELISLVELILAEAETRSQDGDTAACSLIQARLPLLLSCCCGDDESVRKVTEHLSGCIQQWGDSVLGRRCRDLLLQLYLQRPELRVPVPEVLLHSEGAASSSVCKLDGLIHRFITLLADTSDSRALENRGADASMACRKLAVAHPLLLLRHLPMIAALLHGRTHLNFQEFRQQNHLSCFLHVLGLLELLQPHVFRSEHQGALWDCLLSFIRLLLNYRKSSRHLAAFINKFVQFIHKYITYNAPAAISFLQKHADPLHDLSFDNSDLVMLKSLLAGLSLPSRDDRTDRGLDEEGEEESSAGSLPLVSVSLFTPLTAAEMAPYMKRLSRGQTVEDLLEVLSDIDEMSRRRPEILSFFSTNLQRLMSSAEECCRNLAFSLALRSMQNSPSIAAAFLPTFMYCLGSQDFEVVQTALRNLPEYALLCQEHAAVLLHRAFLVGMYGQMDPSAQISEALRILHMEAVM
UniProt Q8TAF3: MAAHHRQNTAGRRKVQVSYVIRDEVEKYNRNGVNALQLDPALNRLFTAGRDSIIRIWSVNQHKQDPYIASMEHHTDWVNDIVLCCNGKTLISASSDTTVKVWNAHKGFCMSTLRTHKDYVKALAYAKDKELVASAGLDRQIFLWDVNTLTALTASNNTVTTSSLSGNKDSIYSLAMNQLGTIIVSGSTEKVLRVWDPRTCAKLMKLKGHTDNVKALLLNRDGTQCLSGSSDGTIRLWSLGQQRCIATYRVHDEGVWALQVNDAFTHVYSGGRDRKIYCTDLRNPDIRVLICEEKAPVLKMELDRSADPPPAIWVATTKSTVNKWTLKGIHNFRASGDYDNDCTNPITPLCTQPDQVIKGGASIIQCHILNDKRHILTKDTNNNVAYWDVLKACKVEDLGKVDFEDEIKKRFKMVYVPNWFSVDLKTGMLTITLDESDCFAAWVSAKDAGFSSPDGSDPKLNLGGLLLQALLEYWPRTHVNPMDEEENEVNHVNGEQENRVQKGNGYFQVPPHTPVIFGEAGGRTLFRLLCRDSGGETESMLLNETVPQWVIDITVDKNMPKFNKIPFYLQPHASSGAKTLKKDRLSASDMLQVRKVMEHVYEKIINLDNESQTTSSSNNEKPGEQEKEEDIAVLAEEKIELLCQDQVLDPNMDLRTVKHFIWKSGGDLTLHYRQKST
UniProt Q8TBM8: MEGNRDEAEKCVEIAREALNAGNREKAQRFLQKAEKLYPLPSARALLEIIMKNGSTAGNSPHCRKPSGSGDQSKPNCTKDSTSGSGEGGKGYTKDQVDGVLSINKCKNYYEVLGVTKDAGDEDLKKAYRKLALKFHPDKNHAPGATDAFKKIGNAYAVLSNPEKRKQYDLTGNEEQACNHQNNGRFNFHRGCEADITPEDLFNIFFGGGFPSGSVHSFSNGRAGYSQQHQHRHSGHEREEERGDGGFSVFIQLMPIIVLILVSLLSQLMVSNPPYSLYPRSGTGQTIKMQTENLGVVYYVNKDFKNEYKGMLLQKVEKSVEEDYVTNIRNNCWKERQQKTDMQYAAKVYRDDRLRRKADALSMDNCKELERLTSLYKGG

log2 ratio of iodoacetamide-alkyne labeling, inactive:
WDR36 C866 (UniProt Q8NI36) 0.614
PPIL4 C426 (UniProt Q8WUA2) 0.13
RPTOR C36 (UniProt Q8N122) 0.221
UniProt Q8NB37_C154 0.304
SLC25A40 C142 (UniProt Q8TBP6) 0.498
NPLOC4 C355 (UniProt Q8TAT6) -0.111
UBR7 C424 (UniProt Q8N806) 0.0211
ZADH2 C55 (UniProt Q8N4Q0) -0.189
ZNF280C C94 (UniProt Q8ND82) 0.512
UniProt Q8N6R0_C273 0.133
NEK7 C298 (UniProt Q8TDX7) 0.142
XRN1 C1450 (UniProt Q8IZH2) -0.00444
UniProt Q8N0X7_C272 0.0955
INTS1 C185 (UniProt Q8N201) -0.123
PPIL4 C245 (UniProt Q8WUA2) -0.0624
UniProt Q8NC60_C505 -0.201
WDR48 C342 (UniProt Q8TAF3) 0.352
RNF10 C483 (UniProt Q8N5U6) 0.316
DYNC2H1 C3975 (UniProt Q8NCM8) 0.121
UniProt Q8NFC6_C74 0.234
INTS1 C1701 (UniProt Q8N201) 0.0493
DNAJB14 C192 (UniProt Q8TBM8) -0.303

At a glance, part of the list above.
log2 ratio of iodoacetamide-alkyne labeling, inactive:
UniProt Q8NFC6_C74 0.234
INTS1 C1701 (UniProt Q8N201) 0.0493

— the supplement of paper PMC11006884
